Measurements reported in PubChem BioAssay AID1224830 (NIAID, 2016).

Purpose: 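Genes whose knock-down alters the TNF-alpha reporter response to LPS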 (primary screen)
Cell system: human THP-1 monocytic leukaemia cells, TNF dual-luciferase reporter clone, PMA-differentiated to macrophage-like cells
Reagents: siRNA pool against human genes, 50 nM
Duration: LPS for 4 h, given about 3 days after siRNA transfection
Conditions: bacterial LPS (TLR4 ligand), 10 ng/ml
Measurement: 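Ratio of firefly to renilla light, scaled to the plate median and expressed as a robust z-score per replicate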
Scale: TNF reporter robust z-score: higher = stronger TNF reporter response to LPS
Rule for the call: 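Each well counts as active if its z-score is over 2.8 or under -1.5; controls are left without a call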
The whole screen tested about 18,000 reagents; this is an unselected part. In the full data, about 2,900 (16%) are marked active. 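Calls are made per well; low scores hint the gene aids the LPS response, high scores that it dampens it.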 Repeated entries: four replicate wells of each siRNA pool.

Gene	TNF reporter robust z-score	call
H4C9	0.19	inactive
H4C9	0.36	inactive
H4C9	0.11	inactive
H4C9	0.22	inactive
ASTE1	1.36	inactive
ASTE1	0.88	inactive
ASTE1	-0.87	inactive
ASTE1	-0.66	inactive
CREB3L3	-0.14	inactive
CREB3L3	-0.87	inactive
CREB3L3	-0.83	inactive
CREB3L3	0.22	inactive
ZKSCAN4	0.66	inactive
ZKSCAN4	0.11	inactive
ZKSCAN4	0.13	inactive
ZKSCAN4	0.35	inactive
TNFRSF1A	-1.32	inactive
TNFRSF1A	-1.21	inactive
TNFRSF1A	-1.5	inactive
TNFRSF1A	-1.46	inactive
PRRX2	0.16	inactive
PRRX2	3.68	active
PRRX2	1.25	inactive
PRRX2	1.11	inactive
NUP155	-1.04	inactive
NUP155	-1.28	inactive
NUP155	-1.17	inactive
NUP155	-0.75	inactive
RAB3IP	0.64	inactive
RAB3IP	0.86	inactive
RAB3IP	-0.27	inactive
RAB3IP	0.03	inactive
MAP3K21	-0.73	inactive
MAP3K21	-0.46	inactive
MAP3K21	-1.11	inactive
MAP3K21	0.33	inactive
CPLX2	0.6	inactive
CPLX2	1.17	inactive
CPLX2	-0.23	inactive
CPLX2	0.77	inactive
KCNB1	-1.32	inactive
KCNB1	-0.44	inactive
KCNB1	-0.79	inactive
KCNB1	-0.53	inactive
DPPA2	-0.4	inactive
DPPA2	0	inactive
DPPA2	-0.56	inactive
DPPA2	-0.2	inactive
PIF1	1.04	inactive
PIF1	1.46	inactive
PIF1	1.75	inactive
PIF1	1.02	inactive

Hits, of those listed so far:
Gene	TNF reporter robust z-score	call
PRRX2	3.68	active

Further records follow.
Gene	TNF reporter robust z-score	call
ZNF829	1.45	inactive
ZNF829	0.22	inactive
ZNF829	0.16	inactive
ZNF829	1.84	inactive
WT1-AS	-0.3	inactive
WT1-AS	0.45	inactive
WT1-AS	0.08	inactive
WT1-AS	-0.17	inactive
H2BC4	0.83	inactive
H2BC4	-0.22	inactive
H2BC4	-1.18	inactive
H2BC4	-1.02	inactive
GPBAR1	-1.7	active
GPBAR1	-1.46	inactive
GPBAR1	-1.53	active
GPBAR1	-1.42	inactive
ZNF311	0.24	inactive
ZNF311	0.3	inactive
ZNF311	0.38	inactive
ZNF311	0.5	inactive
RCN3	-1.92	active
RCN3	-1.28	inactive
RCN3	-1.91	active
RCN3	-1.41	inactive
LGALS9B	1.71	inactive
LGALS9B	1.15	inactive
LGALS9B	1.82	inactive
LGALS9B	1.08	inactive
CLMB	-0.26	inactive
CLMB	0.35	inactive
CLMB	2.54	inactive
CLMB	0.03	inactive
RIMBP2	3.77	active
RIMBP2	1.4	inactive
RIMBP2	1.17	inactive
RIMBP2	1.8	inactive
KRTAP10-12	-0.97	inactive
KRTAP10-12	-0.09	inactive
KRTAP10-12	-0.45	inactive
KRTAP10-12	-0.21	inactive
DSCR10	1.78	inactive
DSCR10	1.4	inactive
DSCR10	1.7	inactive
DSCR10	1.08	inactive
AFAP1L1	-0.13	inactive
AFAP1L1	1.36	inactive
AFAP1L1	0.01	inactive
AFAP1L1	-0.22	inactive
HOXA13	-0.71	inactive
HOXA13	-0.26	inactive
HOXA13	-0.34	inactive
HOXA13	0.04	inactive
SUSD3	-0.27	inactive
SUSD3	1.2	inactive
SUSD3	0.41	inactive
SUSD3	1.21	inactive
BCAS3	-1.24	inactive
BCAS3	-0.72	inactive
BCAS3	-1.25	inactive
BCAS3	-0.83	inactive
